Results deposited as PubChem BioAssay AID1508587 (Peter MacCallum Cancer Centre, 2020).

Assay: 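Knockdowns that add to vemurafenib's cut in melanoma glycolysis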 (follow-up of hits)
System: human WM266.4 melanoma cells with a BRAF V600 mutation
Knock-down reagent: single siRNA against human genes, 25 nM
Timing: 96 h
Challenge: vemurafenib 300 nM (about IC25), given 48 h after transfection for 48 h
Detection: 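Medium lactate read by absorbance over DAPI-counted nuclei; ratio with versus without vemurafenib, set against non-targeting siRNA, averaged over 2 replicates; cell number also recorded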
Reading the numbers: lactate per cell, drug vs no drug: higher = less drug-induced drop in lactate per cell
Hit rule: 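a duplex is active when its lactate-per-cell ratio with versus without drug falls under 0.55, i.e. 2 SD below non-targeting; a gene is confirmed if 2 or more of 4 duplexes pass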
This is an unselected part of about 1,600 reagents tested. 623 of them (39%) count as active. 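Calls are for each duplex; lactate ratios contain extreme outliers.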 The numbers tell different reagents against one gene apart. Not all columns of the deposit are shown. Reagent sequences are not shown.

gene | reagent no. | lactate per cell, drug vs no drug | activity call
ATP6AP1L | 1 | 0.62 | inactive
ATP6AP1L | 2 | 0.66 | inactive
ATP6AP1L | 3 | 0.66 | inactive
ATP6AP1L | 4 | 0.78 | inactive
CCL3 | 1 | 0.86 | inactive
CCL3 | 2 | 1.1 | inactive
CCL3 | 3 | 0.58 | inactive
CCL3 | 4 | 0.43 | active
CEP120 | 1 | 0.34 | active
CEP120 | 2 | 0.44 | active
CEP120 | 3 | 0.54 | active
CEP120 | 4 | 0.54 | active
SEL1L3 | 1 | 0.6 | inactive
SEL1L3 | 2 | 0.48 | active
SEL1L3 | 3 | 0.74 | inactive
SEL1L3 | 4 | 0.32 | active
TMEM128 | 1 | 0.46 | active
TMEM128 | 2 | 0.7 | inactive
TMEM128 | 3 | 0.48 | active
TMEM128 | 4 | 0.68 | inactive
UST | 1 | 0.49 | active
UST | 2 | 0.47 | active
UST | 3 | 0.58 | inactive
UST | 4 | 0.38 | active
RPL29 | 1 | 0.38 | active
RPL29 | 2 | 0.74 | inactive
RPL29 | 3 | 0.55 | inactive
RPL29 | 4 | 0.55 | inactive
KDM3A | 1 | 0.68 | inactive
KDM3A | 2 | 0.59 | inactive
KDM3A | 3 | 0.72 | inactive
KDM3A | 4 | 0.74 | inactive
WFDC13 | 1 | 0.58 | inactive
WFDC13 | 2 | 0.56 | inactive
WFDC13 | 3 | 0.83 | inactive
WFDC13 | 4 | 0.63 | inactive
PIEZO2 | 1 | 0.52 | active
PIEZO2 | 2 | 0.55 | inactive
PIEZO2 | 3 | 0.54 | active
PIEZO2 | 4 | 0.91 | inactive
VPS45 | 1 | 0.43 | active
VPS45 | 2 | 0.55 | inactive
VPS45 | 3 | 0.36 | active
VPS45 | 4 | 0.76 | inactive
PRG3 | 1 | 0.57 | inactive
PRG3 | 2 | 0.34 | active
PRG3 | 3 | 0.74 | inactive
PRG3 | 4 | 0.92 | inactive
CD2AP | 1 | 0.68 | inactive
CD2AP | 2 | 0.68 | inactive
CD2AP | 3 | 0.55 | inactive
CD2AP | 4 | 0.54 | active
MOB3B | 1 | 0.93 | inactive
MOB3B | 2 | 0.6 | inactive
MOB3B | 3 | 0.5 | active
MOB3B | 4 | 1.08 | inactive
IGFALS | 1 | 0.56 | inactive
IGFALS | 2 | 0.75 | inactive
IGFALS | 3 | 0.41 | active
IGFALS | 4 | 0.79 | inactive
KIF5A | 1 | 0.52 | active
KIF5A | 2 | 0.72 | inactive
KIF5A | 3 | 0.43 | active
KIF5A | 4 | 0.5 | active

Copied from above (10 entries):
gene | reagent no. | lactate per cell, drug vs no drug | activity call
CCL3 | 1 | 0.86 | inactive
CCL3 | 2 | 1.1 | inactive
CCL3 | 3 | 0.58 | inactive
CCL3 | 4 | 0.43 | active
CEP120 | 1 | 0.34 | active
CEP120 | 2 | 0.44 | active
CEP120 | 3 | 0.54 | active
CEP120 | 4 | 0.54 | active
SEL1L3 | 1 | 0.6 | inactive
SEL1L3 | 2 | 0.48 | active
